Measured values published in patent publication US20230158153A1, “PI3 KINASE INHIBITORS AND USES THEREOF” (Purdue Research Foundation, priority 2020, published 2023).
The match of structure and compound is tentative.

By UniProt entry, the sequences of proteins in these tests, tags left out.
UniProt Q12884, whole entry: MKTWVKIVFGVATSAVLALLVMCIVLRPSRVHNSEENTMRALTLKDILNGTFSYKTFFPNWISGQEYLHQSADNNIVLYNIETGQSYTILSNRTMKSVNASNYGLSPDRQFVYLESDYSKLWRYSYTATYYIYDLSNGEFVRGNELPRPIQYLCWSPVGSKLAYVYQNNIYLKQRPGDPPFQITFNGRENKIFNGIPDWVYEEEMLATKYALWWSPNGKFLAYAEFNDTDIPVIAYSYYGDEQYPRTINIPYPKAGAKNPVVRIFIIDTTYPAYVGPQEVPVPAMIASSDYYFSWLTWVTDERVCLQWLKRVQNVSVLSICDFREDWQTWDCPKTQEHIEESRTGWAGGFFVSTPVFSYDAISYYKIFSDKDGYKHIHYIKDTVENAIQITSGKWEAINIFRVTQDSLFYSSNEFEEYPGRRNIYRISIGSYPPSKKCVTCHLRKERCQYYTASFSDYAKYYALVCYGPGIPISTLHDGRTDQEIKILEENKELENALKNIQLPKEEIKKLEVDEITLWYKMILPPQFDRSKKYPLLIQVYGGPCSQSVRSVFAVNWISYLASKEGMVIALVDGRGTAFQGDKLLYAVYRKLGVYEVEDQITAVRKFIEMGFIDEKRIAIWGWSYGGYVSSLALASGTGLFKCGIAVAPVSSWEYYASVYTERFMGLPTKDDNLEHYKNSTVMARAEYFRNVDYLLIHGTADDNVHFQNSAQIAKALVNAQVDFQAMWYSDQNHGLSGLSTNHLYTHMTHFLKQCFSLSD

Key:
[1] = system: FAP on fibroblasts from an IPF patient; assay: FAPL-fluorescein uptake by primary human lung fibroblasts (IPF vs non-IPF)
From the text: Comparison of FAPL-Fluorescein uptake by non-IPF (upper row; control) and IPF (lower row) HFL. Binding of FAPL-fluorescein and expression of alpha smooth muscle actin (αSMA), a fibroblast activation marker, are shown in green and red, respectively. The merging of the two markers is shown in pink (right column).
To determine whether FAPL-mediated drug delivery can occur in a more IPF-relevant cell type, FAPL-fluorescein uptake by primary human lung fibroblasts obtained from IPF patients was examined next.
HLF cells, primary human IPF fibroblasts and non-IPF fibroblasts were cultured, fixed, and permeabilized on glass-bottom dishes for immunofluorescent staining. Primary antibodies against hFAP (1:200, FAB3715R, R&D Systems) or αSMA (1:1000, ab21027, Abcam) were incubated overnight at 4° C. After PBS washes, samples were incubated with Alexa Fluor® 488-labeled secondary anti-goat antibodies (Abcam, 1:400). Images were captured and analyzed by confocal microscopy.

human FAP (hFAP) = human FAP (hFAP) (Homo sapiens, UniProt Q12884); assay: FAPL-fluorescein binding to HLF cells before and after transfection with human FAP
From the text: (§1) To test the ability of this ligand to target drugs to myofibroblasts in fibrotic tissues, a FAP-targeting ligand (FAPL) was linked to fluorescein (FIG. 2A, upper structure) and its interaction with a stable human lung fibroblast cell line with FAP-expression (HLF-FAP) was examined.

HLF-FAP cells = assay: Live cell imaging of FAPL-fluorescein internalization; conditions: 5 min vs. 30 min
Procedure: Confocal microscopy of human lung fibroblasts expressing fibroblast activation protein (HLF-FAP cells) expressing the late endosomal marker Rab7a conjugated with red fluorescent protein (Rab7a-RFP) incubated with FAPL-fluorescein and imaged 5 min (a-c) and 30 min (d-f) after FAPL-fluorescein addition. FAPL-fluorescein staining is shown in green, while Rab7a-RFP staining is shown in red. DRAQ5 nuclei staining is shown in blue. Colocalization of FAPL-fluorescein with Rab7a-RFP is shown in panels c and f (indicated in yellow).
as §1
HLF-hFAP cells were seeded in a glass-bottom dish and incubated overnight with endosome tracker (Rab7a-RFP, ThermoFisher). Cells were then incubated with FAPL-Fluorescein (10 nM) for 1 hour at 4° C., followed by staining with 5 nM DRAQ5 nuclear dye (ThermoFisher). After washing 3 times in PBS washes, spatial localization of FAPL-Fluorescein was monitored at any given time under ambient temperature by confocal microscopy (FV 1000, Olympus). Confocal images were further processed using FV10-ASW Olympus software.

binding to HLF cells not transfected with FAP (human FAP (hFAP); non-transfected HLF cells): minimal
Kd (human FAP (hFAP); read-out: Kd of binding to FAP, HLF-FAP cells): 10 nM
Compound: C[C@H](NC(=O)c1ccnc(CNC(=O)CCC(=O)NC(CSC2CC(=O)N(c3ccc(-c4c5ccc(=O)cc-5oc5cc(O)ccc45)c(C(=O)O)c3)C2=O)C(=O)O)c1)C(=O)N1CC(F)(F)C[C@H]1C#N (stereo partly drawn)
uptake by control fibroblasts ([1]; control fibroblasts from human lung explants): little uptake
binding to IPF fibroblasts ([1]; primary human lung fibroblasts from IPF patients): binds to IPF fibroblasts
binding to FAP with co-administration of excess FAPL (human FAP (hFAP); HLF-FAP cells, excess FAPL): largely prevented by co-administration of excess FAPL
binding and internalization (HLF-FAP cells): rapidly internalize into Rab7a-expressing endosomes
